Laboratory results: PubChem BioAssay AID720710 (VTT Finland, 2013)

Purpose: 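Knock-downs that leave cyclin E-high cells sensitive to replication stress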 (primary screen)
Cell system: human U-2 OS bone cancer cells, parental and a cyclin E (CCNE1) overexpressing line
Reagents: single siRNA against human genes, 1 µM siRNA in the printed spot mix
Duration: 67 h
Conditions: half the arrays: hydroxyurea 2 mM for 16 h, then 3 h recovery; other arrays untreated
Measurement: 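EdU click signal imaged per DAPI-stained nucleus at 67 h; each spot divided by its subgrid median, then z-scored relative to non-targeting control spots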
Direction: EdU z-score, cyclin E line, hydroxyurea and EdU z-score, parental, hydroxyurea and EdU z-score, cyclin E line, untreated and EdU z-score, parental, untreated: higher = more DNA synthesis than non-targeting controls
This is an unselected part of about 1,380 deposited reagents. 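One array per condition without replicates; hydroxyurea arrays received 2 mM for 16 h plus 3 h recovery.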

| gene symbol | PubChem SID | EdU z-score, cyclin E line, hydroxyurea | EdU z-score, parental, hydroxyurea | EdU z-score, cyclin E line, untreated | EdU z-score, parental, untreated |
| --- | --- | --- | --- | --- | --- |
| DBF4 | SID164221866 | -0.799 | -1.22 | -1.48 | 0.588 |
| DBF4 | SID164221867 | 4.37 | 0.384 | -0.764 | 1.04 |
| LIG4 | SID164222208 | -0.502 | 0.657 | -2.14 | -2.58 |
| LIG4 | SID164222209 | 0.468 | 0.857 | -0.666 | -0.00369 |
| MACROH2A1 | SID164222040 | -1.74 | -1.29 | -1.17 | 0.181 |
| MACROH2A1 | SID164222041 | -1.08 | 1.31 | -0.954 | 0.604 |
| KAT2A | SID164222000 | -2.29 | -1.77 | -1.52 | -0.681 |
| KAT2A | SID164222001 | -1.34 | 1.83 | -0.802 | -0.585 |
| BCL6 | SID164221718 | -0.175 | -0.00236 | -0.399 | -0.198 |
| BCL6 | SID164221719 | 1.58 | 1.16 | 0.355 | 0.989 |
| RAD23A | SID164222588 | -1.53 | 0.966 | -1.87 | -1.99 |
| RAD23A | SID164222589 | -0.495 | 2.42 | -1.51 | -0.766 |
| LOC730278 | SID164222248 | -1.33 | 0.103 | -1.37 | -0.194 |
| LOC730278 | SID164222249 | -1.22 | 1.58 | -0.364 | 0.636 |
| ORC4 | SID164222450 | -0.874 | -5.13 | -1.14 | 0.517 |
| ORC4 | SID164222451 | -0.292 | -0.101 | -1.13 | 1.26 |
| TDG | SID164222862 | -0.825 | -0.897 | -0.172 | -2.44 |
| TDG | SID164222863 | -0.074 | 3.6 | 0.712 | 1.18 |
| BMI1 | SID164221724 | 0.895 | -2.89 | -1.62 | 0.667 |
| BMI1 | SID164221725 | 1.44 | -1.49 | -0.372 | 2.01 |
| L3MBTL2 | SID164222198 | -1.68 | 0.403 | -1.41 | -0.182 |
| L3MBTL2 | SID164222199 | 0.385 | 2.31 | 1.3 | 0.999 |
| BABAM2 | SID164221734 | -1.36 | -1.88 | -1.41 | -1.01 |
| BABAM2 | SID164221735 | 1.42 | 0.941 | -0.0705 | -0.154 |
| DDIT3 | SID164221878 | -2.33 | -2.13 | -2.09 | -0.671 |
| DDIT3 | SID164221879 | -0.229 | -1.74 | -0.285 | -0.381 |
| ERCC6 | SID164221938 | -0.417 | -2.29 | -1.82 | 0.225 |
| ERCC6 | SID164221939 | 0.41 | 0.161 | 2.11 | 1.22 |
| KLHL41 | SID164222190 | 0.132 | -2.31 | -4.2 | 0.332 |
| KLHL41 | SID164222191 | 0.991 | -0.255 | -0.292 | 0.51 |
| TREX2 | SID164222926 | -1.17 | -2.66 | -5.59 | 0.235 |
| TREX2 | SID164222927 | -0.956 | -0.354 | -0.752 | 0.633 |
| CHD3 | SID164221828 | 1.55 | -0.644 | -1.08 | -1.19 |
| CHD3 | SID164221829 | 2.79 | 1.98 | -0.149 | -0.955 |
| HIRIP3 | SID164222072 | -0.239 | -0.0728 | -1.73 | -0.453 |
| HIRIP3 | SID164222073 | -0.14 | -0.0335 | 0.978 | 2.31 |
| UBE2N | SID164222954 | 0.126 | 2.2 | -2.68 | -2.17 |
| UBE2N | SID164222955 | 0.468 | 3.36 | 1.41 | -0.0337 |
| KAT8 | SID164222356 | -1.67 | -0.409 | -0.704 | -1.73 |
| KAT8 | SID164222357 | 0.359 | 2.02 | 1.89 | 0.29 |
| SMARCC2 | SID164222782 | -1.39 | -0.362 | -0.762 | -0.977 |
| SMARCC2 | SID164222783 | 0.165 | 1.76 | 0.101 | 0.156 |
| LOC727726 | SID164222236 | 0.634 | -0.497 | -0.917 | -0.901 |
| LOC727726 | SID164222237 | 1.3 | 1.77 | 0.115 | -0.817 |
| HDAC4 | SID164222054 | 0.974 | -0.944 | -1.74 | -0.595 |
| HDAC4 | SID164222055 | 1.69 | 0.435 | -0.495 | -0.217 |
| MRPS11 | SID164222326 | -0.409 | -1.12 | 1.23 | 0.608 |
| MRPS11 | SID164222327 | 0.443 | 2.82 | 1.38 | 1.15 |
| BRCA2 | SID164221730 | -1.64 | -0.916 | -1.42 | -1.12 |
| BRCA2 | SID164221731 | 4.51 | 0.161 | 0.0769 | 0.939 |
| MCM7 | SID164222290 | -2.65 | 0.000806 | -1.31 | -2.99 |
| MCM7 | SID164222291 | -0.178 | 0.81 | -0.456 | -0.214 |
| RNF8 | SID164222682 | -2.15 | 0.507 | -0.792 | -0.312 |
| RNF8 | SID164222683 | -1.69 | 1.38 | -0.396 | 1.28 |
| CCNH | SID164221784 | -0.537 | 0.00312 | -0.878 | -1.29 |
| CCNH | SID164221785 | 0.115 | 0.712 | -0.0926 | -0.469 |
| ORC5 | SID164222452 | -0.486 | -1.74 | -4.67 | -0.364 |
| ORC5 | SID164222453 | -0.257 | 2.46 | -0.786 | 1.15 |
| MYC | SID164222352 | -0.761 | 0.294 | -3.15 | 0.0137 |
| MYC | SID164222353 | -0.432 | 0.516 | -0.834 | 1.21 |
| DMC1 | SID164221894 | -1.07 | 1.09 | -2.16 | -2.25 |
| DMC1 | SID164221895 | 0.0326 | 3.56 | -0.462 | -1.92 |
| HAP1 | SID164222042 | -1.51 | 0.798 | -0.606 | -0.825 |
| HAP1 | SID164222043 | -0.0507 | 0.82 | 0.042 | 3.99 |
| SPRTN | SID164221752 | -1.11 | -0.515 | -1.53 | -0.103 |
| SPRTN | SID164221753 | 0.138 | 0.03 | -0.87 | 0.864 |
| RNF5 | SID164222680 | 0.388 | -1.03 | -3.34 | 0.623 |
| RNF5 | SID164222681 | 0.644 | 0.705 | 0.171 | 0.651 |
| MLH1 | SID164222308 | -1.11 | 0.02 | -2.72 | -2.07 |
| MLH1 | SID164222309 | -0.817 | 1.09 | -1.75 | 0.625 |
| PRMT7 | SID164222564 | 0.14 | 3 | -1.23 | -2.63 |
| PRMT7 | SID164222565 | 1.42 | 3.94 | -0.651 | 2.65 |
| MAP2K6 | SID164222264 | -1.42 | -1.24 | -0.684 | -0.192 |
| MAP2K6 | SID164222265 | -0.771 | 0.315 | -0.436 | 0.176 |
